{"source": "PubChem BioAssay AID1159543 (Gurdon Institute, 2015)", "aim": "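Screen all human E2 conjugating enzymes for effects on recombination repair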", "cell system": "human U2OS osteosarcoma cells", "reagents": "siRNA pool against human genes, about 60 nM", "time to read-out": "about 72 h", "challenge": "Break induced by I-SceI nuclease and donor plasmids transfected 8 h after siRNA", "read-out": "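Flow cytometry of a traffic light reporter after an I-SceI break with donor: green cells as fraction of control siRNA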", "scale": "HR, cell-cycle adjusted (DJF): higher = more homologous recombination repair", "hit rule": "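Called if recombination adjusted for cell cycle (DJF) differs from control siRNA by over 40% either way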", "note": "This is one part, drawn at random, of 44 reagents tested. 26 of them (59%) count as active. 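DJF and WP are two cell-cycle corrections; all calls are decreases, no knock-down raised recombination by 40%.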 Entries without a mark were called inactive. The numbers tell different reagents against one gene apart. Further read-outs or replicates are left out here. No sequences are given here."}
{"Gene": "AKTIP", "reagent no.": 1, "HR, cell-cycle adjusted (DJF)": 0.608}
{"Gene": "UBE2Q2", "reagent no.": 1, "HR, cell-cycle adjusted (DJF)": "0.482 (active)"}
{"Gene": "UBE2L6", "reagent no.": 1, "HR, cell-cycle adjusted (DJF)": "0.286 (active)"}
{"Gene": "UBE2H", "reagent no.": 1, "HR, cell-cycle adjusted (DJF)": "0.241 (active)"}
{"Gene": "UBE2V2", "reagent no.": 1, "HR, cell-cycle adjusted (DJF)": "0.198 (active)"}
{"Gene": "CDC34", "reagent no.": 1, "HR, cell-cycle adjusted (DJF)": "0.264 (active)"}
{"Gene": "UBE2K", "reagent no.": 1, "HR, cell-cycle adjusted (DJF)": "0.422 (active)"}
{"Gene": "UBE2B", "reagent no.": 1, "HR, cell-cycle adjusted (DJF)": 0.626}
{"Gene": "UEVLD", "reagent no.": 1, "HR, cell-cycle adjusted (DJF)": 0.784}
{"Gene": "UBE2F", "reagent no.": 1, "HR, cell-cycle adjusted (DJF)": "0.312 (active)"}
{"Gene": "UBE2J1", "reagent no.": 1, "HR, cell-cycle adjusted (DJF)": "0.157 (active)"}
{"Gene": "UBE2T", "reagent no.": 1, "HR, cell-cycle adjusted (DJF)": "0.0942 (active)"}
{"Gene": "UBE2G2", "reagent no.": 1, "HR, cell-cycle adjusted (DJF)": 0.614}
{"Gene": "UBE2D1", "reagent no.": 1, "HR, cell-cycle adjusted (DJF)": "0.176 (active)"}
{"Gene": "UBE2J2", "reagent no.": 1, "HR, cell-cycle adjusted (DJF)": 0.641}
{"Gene": "UBE2Z", "reagent no.": 1, "HR, cell-cycle adjusted (DJF)": 0.789}
{"Gene": "UBE2NL", "reagent no.": 1, "HR, cell-cycle adjusted (DJF)": "0.366 (active)"}
{"Gene": "UBE2E1", "reagent no.": 1, "HR, cell-cycle adjusted (DJF)": 0.656}
{"Gene": "TSG101", "reagent no.": 1, "HR, cell-cycle adjusted (DJF)": "0.428 (active)"}
{"Gene": "UBE2D3", "reagent no.": 1, "HR, cell-cycle adjusted (DJF)": "0.0766 (active)"}
{"Gene": "UBE2A", "reagent no.": 1, "HR, cell-cycle adjusted (DJF)": "0.454 (active)"}
{"Gene": "UBE2G1", "reagent no.": 1, "HR, cell-cycle adjusted (DJF)": "0.507 (active)"}
{"Gene": "BIRC6", "reagent no.": 1, "HR, cell-cycle adjusted (DJF)": "0.419 (active)"}
{"Gene": "UBE2C", "reagent no.": 1, "HR, cell-cycle adjusted (DJF)": 0.804}
{"Gene": "UBE2L3", "reagent no.": 1, "HR, cell-cycle adjusted (DJF)": "0.332 (active)"}
{"Gene": "UBE2W", "reagent no.": 1, "HR, cell-cycle adjusted (DJF)": 0.654}
{"Gene": "UBE2U", "reagent no.": 1, "HR, cell-cycle adjusted (DJF)": "0.306 (active)"}
{"Gene": "UBE2S", "reagent no.": 1, "HR, cell-cycle adjusted (DJF)": 1.36}
{"Gene": "UBE2E2", "reagent no.": 1, "HR, cell-cycle adjusted (DJF)": 0.652}
{"Gene": "UBE2O", "reagent no.": 1, "HR, cell-cycle adjusted (DJF)": "0.121 (active)"}
{"Gene": "PRKDC", "reagent no.": 1, "HR, cell-cycle adjusted (DJF)": 1.06}
{"Gene": "UBE2M", "reagent no.": 1, "HR, cell-cycle adjusted (DJF)": 0.916}
{"Gene": "UBE2D2", "reagent no.": 1, "HR, cell-cycle adjusted (DJF)": 0.682}
{"Gene": "RBBP8", "reagent no.": 1, "HR, cell-cycle adjusted (DJF)": "0.133 (active)"}
{"Gene": "UBE2N", "reagent no.": 1, "HR, cell-cycle adjusted (DJF)": "0.155 (active)"}
{"Gene": "UBE2N", "reagent no.": 2, "HR, cell-cycle adjusted (DJF)": "0.471 (active)"}
